Experimental data as given in PubChem BioAssay AID2551 (National Center for Advancing Translational Sciences (NCATS), 2010).
About 17,000 (5.5%) of roughly 310,000 compounds were called active. This list was built around the results that the source calls inconclusive (neither active nor inactive); the mix of calls is not that of the screen. Calls follow the shape of the dose curve; as a rule, active = well fitted inhibition curve with a large enough effect; inconclusive = small, poorly fitted or top-dose-only effect, or effect the other way; inactive = no such curve, though single readings can be large or run the other way. Where the call is inconclusive, the potency comes from a doubtful curve fit.

Sequences of proteins named here, by UniProt entry; tags and fusion partners are left off. A change or cut given only in a name is not applied to a line headed by its entry.
UniProt P51450: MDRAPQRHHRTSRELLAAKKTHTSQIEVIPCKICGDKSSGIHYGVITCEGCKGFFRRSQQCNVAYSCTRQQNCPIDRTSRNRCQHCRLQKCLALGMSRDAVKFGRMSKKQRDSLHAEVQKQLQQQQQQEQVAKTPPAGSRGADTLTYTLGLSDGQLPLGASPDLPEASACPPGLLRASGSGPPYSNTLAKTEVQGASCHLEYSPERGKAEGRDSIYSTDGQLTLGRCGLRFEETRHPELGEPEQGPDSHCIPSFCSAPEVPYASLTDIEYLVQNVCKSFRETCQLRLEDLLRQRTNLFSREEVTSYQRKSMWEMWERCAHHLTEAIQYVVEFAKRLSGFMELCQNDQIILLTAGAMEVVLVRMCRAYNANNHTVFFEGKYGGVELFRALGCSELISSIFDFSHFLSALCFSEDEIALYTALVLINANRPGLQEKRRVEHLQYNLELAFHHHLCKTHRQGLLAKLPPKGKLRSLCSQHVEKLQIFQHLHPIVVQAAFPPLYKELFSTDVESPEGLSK

target: Nuclear receptor ROR-gamma (Mus musculus) (UniProt P51450); experiment: qHTS for inhibitors of ROR gamma transcriptional activity; conditions: Drosophila S2 Gal4-RORgamma UAS-luciferase reporter, 20 h; activity change, negative = inhibition: at 53.6 µM (top of the series); also: nearly all actives have a fitted effect of over 60% in size
Method in brief: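 ROR gamma transcriptional activity was tracked as Gal4-UAS luciferase output in stably transfected Drosophila Schneider cells, with compound added 1 hr before 700 uM copper sulfate induction and a 20 hr ambient-temperature incubation.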
% is scaled to controls: 0 for no effect and ±100 for the full control effect; potency is read from the fitted curve at half-maximal effect.

Activity change, negative = inhibition, inactive:
COC(=O)c1c(NC(=O)COC(=O)Cn2cnc3ccccc32)sc2c1CCCC2 -9.96%
O=C(NCc1cccnc1)c1ccc([N+](=O)[O-])o1 -37.9%
O=C(c1ccco1)N1CCC2(CCCN(c3ncccn3)C2)CC1 23.8%
CCCCCC(=O)Nc1cc(N(C)C)nc2ccccc12 3.3%
Cc1cccc(CN2CCC(C(N)=O)CC2)c1 -16.4%
Clc1cccc(CN2CCN(c3ncccn3)CC2)c1Cl 0.662%
CC(=O)Nc1ccc(NC(=O)c2cccc(C(=O)OC(C)C)n2)cc1 -22.7%
CCOC(=O)c1cc(C(=O)c2cccs2)n2ccc(C(C)=O)cc12 -2.31%
Cc1cc(C(=O)CSc2nn3c(=O)c(C(C)(C)C)nnc3s2)c(C)n1C1CC1 -1.28%
CCCC(C)C(=O)Nc1ccc(S(=O)(=O)Nc2nccc(C)n2)cc1 (configuration not stated) -16.8%
O=C(CN(Cc1ccccc1)C(=O)CSc1nnc(COc2ccccc2)o1)NC1CCCC1 30%
O=C(O)C1CC=CCC1C(=O)Nc1ccccc1Cl (configuration not stated) -35.8%
O=C(Nc1ccc(S(=O)(=O)N2CCCCC2)cc1)C1CCCN(C(=O)c2ccc(Cl)cc2)C1 (configuration not stated) -29%
O=C(OCc1nc2ccccc2[nH]1)C12CC3CC(CC(C3)C1)C2 -10.9%
Clc1ccc(CSc2nnc(-c3cccnc3)n2Cc2ccco2)c(Cl)c1 28.5%
COc1ccc(NC(=O)C2(S(=O)(=O)c3ccc(C)cc3)CC2)cc1 26.9%
O=C(Oc1ccccc1)N1CCC[C@@]2(CCN(c3ccccc3)C2)C1 25.8%
CN(C(=O)c1ccc(C#N)cc1)c1nnc(-c2ccccn2)s1 2.45%
CC(C)CC(NC(=O)CN)C(=O)NC(Cc1ccccc1)C(=O)O (configuration not stated) 11.2%
CC(C)c1nnc(NC(=O)CCC(=O)NC2CCCCC2)s1 -6.77%
O=C1C(C=NCCCN2CCCC2=O)=C(O)c2ccccc21 -25.1%
O=C(CSc1nnc(-c2ccccc2)o1)c1ccc2c(c1)OCCO2 -2.49% [at 10 µM]
CCOC(=O)C1=C(C)n2c(s/c(=C3\C(=O)Nc4ccccc43)c2=O)=NC1c1ccc(OC)cc1 (configuration not stated) -12.5%
COC(=O)CCCCC(=O)OC -2.47%
COc1ccccc1/C=C/C=N/NC(=O)CN1CCN(Cc2ccccc2)CC1 -39.6%
Cc1cc2oc(=O)cc(CN3CCN(S(=O)(=O)c4ccc5c(c4)OCCO5)CC3)c2cc1C 31.5%

Potency, active:
O=C(Nc1nnc(-c2ccccc2Cl)o1)c1nc2ccccc2s1 1.12 µM
CNC(=S)N/N=C/c1cc(C)n(-c2ccc(Cl)c(Cl)c2)c1C 0.794 µM
Fc1ccc(-n2cc(-c3ccccc3)c3c(=S)nc[nH]c32)cc1 1.26 µM
CCOc1cccc(-c2c(C(=O)N/N=C/c3ccco3)nnn2-c2nonc2N)c1 11.2 µM
CCn1nnc(NC(=O)c2ccc(C(C)(C)C)cc2)n1 12.6 µM
O=C(CCC(=O)Nc1ccccc1Cl)NNC(=S)Nc1ccccc1C(F)(F)F 7.94 µM
CN(C)S(=O)(=O)c1ccc(C(=O)Nc2nc3ccccc3[nH]2)cc1 11.2 µM
Cc1ccc(C(=O)N/N=C/c2c(O)ccc3ccccc23)cn1 5.01 µM
CCC(=O)NC(=S)N1CCN(c2ccc([N+](=O)[O-])cc2Cl)CC1 3.98 µM
CC(c1ccccc1)n1c(-c2ccccc2F)n[nH]c1=S (configuration not stated) 7.08 µM
Cc1cc2nc(N3C(=O)CNC3=S)sc2cc1C 1 µM
CCn1c(O)c(N=NC2=NC(=O)CS2)c2cc(C)ccc21 4.47 µM
O=C(N/N=C1\CC(c2ccccc2)Oc2ccccc21)c1cccnc1 (configuration not stated) 5.62 µM
C/C(=N\NC(=S)NCc1ccccc1)c1ccc2ccccc2c1OC(F)F 2.24 µM
Oc1ccc(Br)cc1-c1ccn[nH]1 2.82 µM
COc1cc(OC)cc(C(=O)N/N=C/c2ccc(OC)c(COc3ccc(F)cc3)c2)c1 3.98 µM
CCOC(=O)N/N=C/c1cn(CCCOc2ccc(C)cc2)c2ccccc12 1.41 µM

Potency, inconclusive:
Cc1ccc(N2C(=O)c3cccc4c(N)ccc(c34)C2=O)c2cccnc12 22.4 µM [inhibitor, partial curve, poor fit]
CN(c1ccc(C(=O)N2CCCCCC2)cc1)S(=O)(=O)c1ccc(Cl)cc1 11.2 µM [activator, partial curve, poor fit]
CC(C)(C)c1ccc(C(=O)c2c[nH]c(C(=O)NCc3ccco3)c2)cc1 35.5 µM [inhibitor, single point]
N#Cc1ccsc1NC(=O)COC(=O)CCCSc1nc2ccccc2s1 20 µM [inhibitor, single point]
CCC(C)(C)n1nnnc1C(c1ccc2ncccc2c1)N1CCN(c2nc3ccccc3s2)CC1 (configuration not stated) 14.1 µM [activator, partial curve]
O=C(NNc1cccc(Cl)n1)Nc1cccc(C(F)(F)F)c1 10 µM [activator, partial curve]
Cc1ccccc1-n1c(SCC(=O)NC(N)=O)nc2sc(-c3ccccc3)cc2c1=O 35.5 µM [inhibitor, single point]
C=CCc1ccc(OCCCOc2ccc(C(=O)O)cc2)c(OC)c1 15.8 µM [activator, partial curve, poor fit]
Cc1ccccc1N1CCN(S(=O)(=O)c2ccc3oc(=O)ccc3c2)CC1 14.1 µM [activator, single point]
COc1ccc(Cn2c(=O)c3[nH]cnc3n(-c3ccc(C)cc3)c2=O)cc1 11.2 µM [activator, partial curve]
CCCC1O[C@@H]2CC3C4CCC5=CC(=O)C=C[C@]5(C)C4C(OC(C)=O)C[C@]3(C)[C@]2(C(=O)COC(C)=O)O1 (some centres not stated) 3.55 µM [activator, partial curve]
O=C(N/N=C/c1ccco1)C1(O)c2ccccc2-c2ccccc21 5.62 µM [activator, single point]
Cc1cc(C)c(NC(=S)N2CCN(c3ccc([N+](=O)[O-])cn3)CC2)cc1C 14.1 µM [inhibitor, single point]
CN(C)S(=O)(=O)Oc1ccc(C(=O)Nc2cccc(Cl)c2)cc1 2.82 µM [inhibitor, single point]
CC1=C(C(=O)Nc2ccc(C)cc2C)C(c2cccc(Cl)c2)n2nc(C(=O)OC(C)C)nc2N1 (configuration not stated) 14.1 µM [inhibitor, single point]
CC(=O)Nc1cccc(Oc2ccc([N+](=O)[O-])cc2Cl)c1 10 µM [activator, partial curve]
CC(=O)Nc1ccc(S(=O)(=O)Nc2cc(C)cn(Cc3ccccc3)c2=O)cc1 15.8 µM [activator, single point]
c1ccc(-c2cccc(N3CCCC4(CCNCC4)C3)c2)cc1 35.5 µM [inhibitor, single point]
COc1ccc2ccccc2c1/C=N/NC(=O)c1cccc([N+](=O)[O-])c1 17.8 µM [inhibitor, single point]
CC(=O)Nc1c(O)n(C)c2ccccc12 0.141 µM [activator, full curve]
COc1ccc(OC)c(NC(=O)CSc2nnc(CNC(=O)COc3ccc(Cl)cc3)o2)c1 20 µM [activator, partial curve, poor fit]
Cc1ccc(/C=N\NC(=O)CC(=O)NCCc2ccccc2)cc1 6.31 µM [inhibitor, single point]
O=[N+]([O-])c1ccc(NNC(=S)Nc2ccc(F)cc2)cc1 15.8 µM [inhibitor, partial curve, poor fit]
Cc1ccc(-c2nnn(CC(=O)N3CCCCC3)n2)o1 3.98 µM [activator, full curve]
CCOc1ccccc1CNC(=O)Cn1nc(C)c2c(C)n(-c3ccc(C)cc3)nc2c1=O 11.2 µM [activator, single point]
CC(C(=O)NC1CCCC1)N(C(=O)Cn1nnc(-c2ccc(F)cc2)n1)c1ccccc1F (configuration not stated) 25.1 µM [activator, single point]
Cc1cccc(NC(=S)N2CCOCC2)c1C 20 µM [inhibitor, single point]
CC1=C(C(N)=O)C(c2cccs2)n2nc(-c3cccc(Cl)c3)nc2N1 (configuration not stated) 14.1 µM [activator, single point]
COc1cccc(C(=O)/C=C/Nc2ccc(S(=O)(=O)Nc3cc(OC)nc(OC)n3)cc2)c1 11.2 µM [activator, partial curve]
CCN(CC)S(=O)(=O)c1cc(C(=O)Nc2ccncc2)ccc1Cl 35.5 µM [activator, single point]
CCOC(CCn1c(SCc2cccc([N+](=O)[O-])c2)nc2ccccc2c1=O)OCC 35.5 µM [activator, single point]
O=C(c1cc2n(n1)C(C(F)(F)F)CC(c1ccco1)N2)N1CCc2ccccc2C1 (configuration not stated) 10 µM [activator, partial curve]
CCOC(=O)C1CCN(C(=O)/C=C/c2ccccc2)CC1 35.5 µM [activator, single point]
O=C(CCN1C(=O)/C(=C/c2cccs2)SC1=S)Nc1ccccn1 35.5 µM [inhibitor, single point]

Quoted from the results shown, four compounds:
Potency, inconclusive:
CCC(C)(C)n1nnnc1C(c1ccc2ncccc2c1)N1CCN(c2nc3ccccc3s2)CC1 (configuration not stated) 14.1 µM [activator, partial curve]
O=C(NNc1cccc(Cl)n1)Nc1cccc(C(F)(F)F)c1 10 µM [activator, partial curve]
Cc1ccccc1-n1c(SCC(=O)NC(N)=O)nc2sc(-c3ccccc3)cc2c1=O 35.5 µM [inhibitor, single point]
C=CCc1ccc(OCCCOc2ccc(C(=O)O)cc2)c(OC)c1 15.8 µM [activator, partial curve, poor fit]
